Test results taken from paper PMC9697873, “Construction and Evaluation of a Novel Organic Anion Transporter 1/3 CRISPR/Cas9 Double-Knockout Rat Model” (Pharmaceutics, 2022).

Settings: KO vs WT rats, 20 mg/kg oral, at 2, 4, 6, 8, 10, 12 h

urine furosemide excretion, KO compared with WT rats: markedly decreased
SMILES: NS(=O)(=O)c1cc(C(=O)O)c(NCc2ccco2)cc1Cl [Furosemide, furosemide]
